# Test results reported in PubChem BioAssay AID493014 (National Center for Advancing Translational Sciences (NCATS), 2011).
# The whole screen tested about 340,000 compounds, of which about 170 (0.05%) were called active. Inconclusive means that the source gave no clear call. Such entries were picked first, then a sample of the others. Calls come from the whole dose curve; as a rule, active = well fitted inhibition curve with a large enough effect in the signal ratio, with a control signal flat (not every such curve was filed as active); inconclusive = small, poorly fitted or top-dose-only effect, or effect the other way, or a change in a side signal; inactive = flat fitted curve, though single readings scatter; the % refers to the signal ratio. Potencies beside an inconclusive call are fits to weak or partial responses and may not hold up.
# Assay: qHTS Assay to Find Inhibitors of Chronic Active B-Cell Receptor Signaling;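 for activity change, negative = inhibition: plate controls were basal doxycycline-induced cells for no effect and cells given 10 µM MG132 for full effect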
# Settings: ABC-DLBCL IkBa-CBG/CBR reporter, luminescence ratio (green luciferase fused to IkBa over red control in TMD8 lymphoma cells), 4 h; activity change, negative = inhibition: at 46.1 µM (top of the series) unless noted
# Outline: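 TMD8 ABC-DLBCL cells carrying doxycycline-inducible green luciferase fused to IkappaBalpha plus unfused red luciferase were exposed to compounds (up to 46 uM) for 4 hrs at 37C. Activity came from the overlap-corrected green/red luminescence ratio.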
# Potency is the fitted concentration of half-maximal effect.
SMILES,Potency,"activity change, negative = inhibition"
C=C(C)COc1ccc(-c2nc(N)ncc2-c2ccc(OC)cc2)c(O)c1,"inconclusive: 11.2 µM [falling, partial curve, poor fit]",
COc1cc(OC)cc(C(=O)Nc2ccc(C(=O)Nc3ccccc3OC)cc2)c1,,inactive: -0.0705%
NNC(=O)c1cc(O)c(O)c(O)c1,"inconclusive: 31.6 µM [falling, partial curve]",
CC(C)(C)OC(=O)C[C@H]1C/C=C\C[C@H](CC(=O)N[C@H](CO)Cc2ccccc2)C(=O)N2CCC[C@@H]2COC1=O,,inconclusive: -0.868%
C/C(=N\NC(=O)CC(C)C)c1ccc(Cl)c(Cl)c1,,inconclusive: 1.82%
CN1C=CC=C/C1=C1\SC(=S)N(CC(=O)O)C1=O,,inconclusive: 16%
COc1ccccc1/C=C(/NC(=O)c1ccccc1)C(=O)NCCCn1ccnc1,"inconclusive: 17.8 µM [falling, single point]",
Cc1cccc(CCN=c2c([N+](=O)[O-])nn(-c3ccccc3)n2O)c1,,inconclusive: 14.6%
CCC(C)n1c(=S)[nH]c2ccccc2c1=O (stereo unspecified),,inconclusive: 2.81%
COc1ccccc1-n1c(CNC(=O)c2ccco2)nnc1SCC(=O)Nc1ccc(F)cc1,"inconclusive: 2.51 µM [falling, partial curve, poor fit]",
CC(CN1CCN(C)CC1)OC(=O)c1cccc(Cl)c1 (stereo unspecified),,inactive: 4.97%
COc1ccccc1N1CCN(C(=O)c2ccc3[nH]c4c(c3c2)CC(C)CC4)CC1 (stereo unspecified),,inactive: 18.6%
COc1ccc(CCNc2c3ccccc3nc3ccccc23)cc1OC,,inactive: 15.7%
CSc1ccccc1NC(=O)COC(=O)c1ccccc1O,"inconclusive: 31.6 µM [rising, single point]",
COc1ccccc1-n1c(SCC(=O)NCc2ccc3c(c2)OCO3)nc2cc([N+](=O)[O-])ccc21,,inconclusive: -8.4%
O=C(Nc1ccc(-c2noc(CCc3ccccc3)n2)cc1)c1ccco1,,inconclusive: 5.74%
CC(=O)Nc1ccc(S(=O)(=O)N(C)CC(=O)Nc2ccc(Br)cc2F)cc1,,inactive: -12%
Cn1c(=O)n(C)c2cc(NS(=O)(=O)c3ccc(Cl)s3)ccc21,,inconclusive: -6.52%
COc1cccc(NC(=O)CN(C)C(C)C(=O)NC(=O)NC2CCCCC2)c1 (stereo unspecified),,inconclusive: 0.311%
CCCC(CCC)C(=O)NC1CC(=O)N(c2ccc3c(c2)OCCO3)C1 (stereo unspecified),,inactive: -3.38%
Cc1nc(Nc2ccccc2)[nH]c(=O)c1CCC(C)C,,inconclusive: 8.71%

# 5 entries from above, tab-delimited:
SMILES	Potency	activity change, negative = inhibition
NNC(=O)c1cc(O)c(O)c(O)c1	inconclusive: 31.6 µM [falling, partial curve]	
COc1ccccc1N1CCN(C(=O)c2ccc3[nH]c4c(c3c2)CC(C)CC4)CC1 (stereo unspecified)		inactive: 18.6%
O=C(Nc1ccc(-c2noc(CCc3ccccc3)n2)cc1)c1ccco1		inconclusive: 5.74%
COc1cccc(NC(=O)CN(C)C(C)C(=O)NC(=O)NC2CCCCC2)c1 (stereo unspecified)		inconclusive: 0.311%
CCCC(CCC)C(=O)NC1CC(=O)N(c2ccc3c(c2)OCCO3)C1 (stereo unspecified)		inactive: -3.38%

# Going on with the list.

SMILES,Potency,"activity change, negative = inhibition"
CCN(CC)c1ccc(/C=C2/C(=O)ON=C2C)cc1,,inconclusive: 13.6%
Cc1ccccc1/C=N/Nc1nc2ccccc2[nH]1,"inconclusive: 35.5 µM [rising, single point]",
CCc1ccc(NC(=O)CCCN2C(=O)C3CC=CCC3C2=O)cc1 (stereo unspecified),,inactive: -9.1%
Cc1cccc(NC(=S)NCc2ccc3[nH]c4c(c3c2)CCCC4)c1,"inconclusive: 29.1 µM [falling, single point]",
Cc1ccc2nc(N3CCOCC3)c(C=O)cc2c1,,inconclusive: 5.65%
Nc1ccc2[nH]ncc2c1,,inconclusive: 0.801%
Cc1ccc(OCCCn2ccnc2)c([N+](=O)[O-])c1,,inactive: -0.0073%
O=C(CN1C(=O)C(=O)N(Cc2ccccc2)C1=O)Nc1cc(Cl)cc(Cl)c1,,inconclusive: -1.7%
CCOc1ccc(NC(=O)CSc2nc(=O)n(Cc3ccccn3)c3c2CCC3)cc1,"inconclusive: 18.4 µM [falling, single point]",
Cc1ccc(C)c(NC(=O)c2ncn[nH]2)c1,,inconclusive: -4.22%
Cc1ccc(C)c(SCC(=O)Nc2ccc(S(=O)(=O)Nc3ncccn3)cc2)c1,,inconclusive: 3.6%
Cn1c(CNc2nc3ccccc3n2CCN2CCCCC2)nc2ccccc21,,inconclusive: -0.59%
CCCn1c(NC(=O)CN2C(=O)NC3(CCCCC3)C2=O)nc2ccccc21,,inconclusive: -14.6%
COc1ccc(-c2cn3cccc(C)c3n2)cc1Br,,inconclusive: 2.86%
CCc1nnc(NC(=O)C2CCN(C(=O)NC3CCCCC3)CC2)s1,,inactive: 4.02%
O=C(Nc1cc2c(cc1Cl)OCCCO2)c1ccc(F)cc1,,inconclusive: 2.14%
Cc1nc2c(C(=O)NCCc3ccc(Cl)cc3)cnn2c(C)c1Cc1ccc(F)cc1,,inactive: 14.9%
CCC/C(O)=C1\C(=O)CCCC1=NCCCCCC(=O)O,,inconclusive: -0.741%
CCCc1ccc(OCc2ccc(C(=O)N3CCCC3)o2)cc1,,inconclusive: -15.6%
COc1ccc(N2C(N)=C(C#N)C(c3cc(CN4CCOCC4)cs3)C3=C2CCCC3=O)cc1 (stereo unspecified),,inactive: -24%
Cc1ccc(CCSCC(=O)O)cn1,,inconclusive: 2.86%

SMILES,Potency,"activity change, negative = inhibition"
CCOc1ccccc1N1CCN(C(=O)CCNS(=O)(=O)c2ccccc2F)CC1,,inconclusive: 1.2%
COc1cccc2sc(Nc3nc4ccc(NC(C)=O)cc4s3)nc12,,inactive: -0.735%
CCN1CCN(C(=O)c2ccc(Cn3c(=O)[nH]c4cc(OC)c(OC)cc4c3=O)cc2)CC1,,inactive: -12.5%
COc1cc2cc(CN(Cc3cccnc3)C(=O)Nc3ccccc3F)c(=O)[nH]c2cc1OC,"inconclusive: 12.6 µM [rising, partial curve, poor fit]",
C/C(CCC(C)C)=N\Nc1ccc(S(N)(=O)=O)cc1[N+](=O)[O-],,inconclusive: 3.62%
CCOC(=O)[C@@H](C)N(Cc1ccc(OC)cc1)S(=O)(=O)N(Cc1ccccc1)[C@H](C(=O)OC)C(C)C,,inactive: 11.3%
Cc1ccccc1N1CCN(C2CCCN(C(=O)c3cn4c(C)cccc4n3)C2)CC1 (stereo unspecified),,inconclusive: -10.4%
CCCCCOC(=O)c1c(N)n(CCOC)c2nc3ccccc3nc12,,inconclusive: 5.12%
COc1cccc(C(=O)NC2CC3CCCC(C2)N3CC(=O)Nc2ccc(N(C)C)cc2)c1 (stereo unspecified),,inactive: 7%
O=C(OCC(=O)N1CCc2ccccc21)c1cc(S(=O)(=O)N2CCOCC2)ccc1F,,inconclusive: 0.329%
C/C(=N\NC(=O)c1ccccc1O)C1CC1,"inconclusive: 7.08 µM [rising, full curve]",
CCC(=O)c1ccc(OCC(=O)OCC(=O)N(C)CC(=O)Nc2ccc(F)cc2)cc1,,inconclusive: -190%
CCCn1c(NC(=S)Nc2ccccc2)nc2ccccc21,,inconclusive: 14.9%
COc1ccc(NC(=O)c2ccc(N(C)S(C)(=O)=O)cc2)cc1OC,,inconclusive: 7.03%
O=C(NCCc1ccco1)c1nn(Cc2ccccc2)c(=O)c2ccccc12,,inconclusive: -0.511%
O=C(COC(=O)c1ccc(O)cc1)Nc1ccccc1-c1ccccc1,,inconclusive: -6.53%
CC(Nc1nc(N2CCCCC2)nc2ccccc12)c1ccccc1 (stereo unspecified),,inconclusive: -26.5%
O=C(NCc1ccccc1)c1onc(CSc2ccccn2)c1C(=O)NCc1ccccc1,,inactive: 0.87%
Cc1cc(C)c[n+](-c2nc3ccccc3nc2C(=C=[N-])C#N)c1,,inconclusive: 24.7%
Cc1ccc(S(=O)(=O)N(C(=O)c2ccco2)c2cc3sc(=O)oc3c3ccccc23)cc1,"inconclusive: 29.1 µM [falling, single point]",
CCOCCn1c(C)c(C(=O)OCC)c2cc(O)c3ccccc3c21,,inconclusive: -1.64%

SMILES,Potency,"activity change, negative = inhibition"
CCCN(Cc1ccc(C)cc1)C(=O)c1ccc(CNS(=O)(=O)c2ccc(C(C)=O)cc2)cc1,"inconclusive: 16.4 µM [falling, partial curve, poor fit]",
O=[N+]([O-])c1ccc(C2Oc3ccccc3C3CC(c4ccccc4)=NN32)s1 (stereo unspecified),"inconclusive: 16.4 µM [falling, single point]",
Cc1c(NC(=O)c2ccc(COc3ccc4ccccc4c3)o2)c(=O)n(-c2ccccc2)n1C,,inconclusive: -27.6%
COC(=O)c1cc(NC(=O)Cc2ccccc2[N+](=O)[O-])cc(C(=O)OC)c1,,inconclusive: -144%
COc1cc(NC(=O)CN2C(=O)NC(c3ccccc3)(c3ccccc3)C2=O)cc(OC)c1,"inconclusive: 15.8 µM [falling, partial curve, poor fit]",
COc1ccccc1C(=O)NCC(=O)N/N=C/c1cc(Br)ccc1OCc1ccccc1,,inconclusive: 10.3%
O=C(N/N=C/c1cn(-c2ccccc2)nc1-c1cccs1)c1ccccc1F,,inconclusive: 1.94%
CCCC(C)c1nnc(NC(=O)C(=O)OCC)s1 (stereo unspecified),,inconclusive: 4.5%
Oc1ccc(C[C@H]2CNCCN2CCc2cc(C(F)(F)F)cc(C(F)(F)F)c2)cc1,"inconclusive: 29.1 µM [falling, single point]",
NC(=O)c1ccsc1NC(=O)CSc1ncnc2sccc12,,inconclusive: -29.3%
Cn1c2c(c(=O)n(C)c1=O)C(C(F)(F)F)(C(F)(F)F)N=C(CCC1CCCCC1)N2,,inactive: -3.59%
COCCC(=O)N1CCC(Oc2ccc(C(=O)NCCC3=CCCCC3)cc2)CC1,,inconclusive: 3.8%
CCOC(=O)C1C(=O)C=C(c2ccc(NS(C)(=O)=O)cc2)CC1c1ccco1 (stereo unspecified),,inconclusive: 0.95%
O=C(CCC1CCCN(C(=O)CCCc2ccccc2)C1)N1CCN(c2ccccn2)CC1 (stereo unspecified),,inconclusive: 13.3%
c1ccc2c(c1)nc(Nc1ccc3c(c1)OCO3)c1nnnn12,,inconclusive: -29.1%
O=[N+]([O-])CC(=Nc1ccc(Cl)cc1)N/N=C\c1oc(O)c2ccccc12,"inconclusive: 3.66 µM [falling, full curve]",
COC(=O)CSc1nc2ccc(N)cc2s1,"inconclusive: 17.8 µM [activator, single point]",
CC(C)SCc1nc2ccccc2[nH]1,"inconclusive: 18.4 µM [falling, single point]",
